From article PMC6330308, “Light-Induced Thiol Oxidation of Recoverin Affects Rhodopsin Desensitization” (Frontiers in Molecular Neuroscience, 2018)
No constants are given. Whether binding was seen depends on the method and setting. Some entries that bind do so weakly or less than the wild type.

Key:
[1] = biological target: Rabbit recoverin (rabbit (endogenous in retina)) (UniProt G1T9K5); test: reducing Western blotting; the same recoverin fractions from rat and rabbit retinas under reducing conditions; anti-recoverin antibodies
[2] = biological target: Rabbit recoverin (rabbit (endogenous in retina)) (UniProt G1T9K5); test: non-reducing Western blotting; recoverin immunoaffinity-purified from retinal extracts of illuminated (rat: 2,500 lx, 14 h; rabbit: 2,200 lx or 30,000 lx, 3 h) or dark-adapted eyes; non-reducing conditions; anti-recoverin antibodies

binding [2]: binds
B1: Rabbit recoverin (protein, UniProt G1T9K5 1-202)
chain: MGNSKSGALSKEILEDLQLNTKFTEEELCTWYQSFLKECPSGRITRQEFESIYAKFFPDADPKAYAQHVFRSFDANSDGTLDFKEYVIALHMTTAGKPSQKLEWAFSLYDVDGNGAISKNEVLEIVMAIFKMINPEDVKHLPDDENTPEKRTEKIWGFFGKKDDDKLTEEEFIEGTMANKEILRLIQFEPQKVKERIKEKKQ
binding [1]: no binding (condition: under reducing conditions)
